Results deposited as PubChem BioAssay AID1508597 (Cure First, 2020).
Test: 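Knock-downs altering ovarian cancer cell survival with or without PARP inhibitor rucaparib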 (primary screen). Cell system: human ovarian carcinoma lines grown from tumours: OCI-P5x (papillary serous) and OCI-C5x (clear cell). Reagents: siRNA pool against human genes, 1.25 pmol siRNA per well. Time to read-out: 72 h or 96 h, depending on the cell culture. Challenge: rucaparib 20 µM (about IC30) or vehicle, present until read-out. Rucaparib or vehicle: Vehicle. Cell line: OCI-P5x (serous). Read-out: 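ATP luminescence measured at 72 or 96 h according to the culture, then normalised and expressed as percent viability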. Scale: viability, normalised: higher = more viable cells remaining. Call rule: 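a well counts as a hit if its normalised viability is under 80 percent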. Calls: active = viability under 80%; inactive = viability 80% or more.
Shown is a random part of the about 2,100 reagents, in one setting of the screen. 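Calls flag viability under 80% in either arm, not effects specific to rucaparib; the reference for percent is not stated.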 Not stated in the record: the 100% reference.

With CLU (clusterin) [SID405528145], technical replicate 1, the values are viability, normalised (%) = 67.1; active.
For CLU (clusterin) [SID405528145], technical replicate 2 the deposit lists viability, normalised (%) = 76.3; active.
For CLU (clusterin) [SID405528145], technical replicate 3, the values are viability, normalised (%) = 54.8; active.
ULK3 (unc-51 like kinase 3) [SID405527906], technical replicate 1 showed viability, normalised (%) = 70.5; active.
With ULK3 (unc-51 like kinase 3) [SID405527906], technical replicate 2 the deposit lists viability, normalised (%) = 50.7; active.
For ULK3 (unc-51 like kinase 3) [SID405527906], technical replicate 3 the deposit lists viability, normalised (%) = 66.7; active.
BMP7 (bone morphogenetic protein 7) [SID405528036], technical replicate 1 gave viability, normalised (%) = 74.1; active.
For BMP7 (bone morphogenetic protein 7) [SID405528036], technical replicate 2, the values are viability, normalised (%) = 87.5; inactive.
With BMP7 (bone morphogenetic protein 7) [SID405528036], technical replicate 3 the deposit lists viability, normalised (%) = 80.9; inactive.
SMPDL3B (sphingomyelin phosphodiesterase acid like 3B) [SID405526723], technical replicate 1 showed viability, normalised (%) = 71.9; active.
For SMPDL3B (sphingomyelin phosphodiesterase acid like 3B) [SID405526723], technical replicate 2 the deposit lists viability, normalised (%) = 69.2; active.
For SMPDL3B (sphingomyelin phosphodiesterase acid like 3B) [SID405526723], technical replicate 3, the entry reads viability, normalised (%) = 76.4; active.
HDAC4 (histone deacetylase 4) [SID405526842], technical replicate 1 showed viability, normalised (%) = 72.7; active.
For HDAC4 (histone deacetylase 4) [SID405526842], technical replicate 2, the entry reads viability, normalised (%) = 86.3; inactive.
For HDAC4 (histone deacetylase 4) [SID405526842], technical replicate 3 the deposit lists viability, normalised (%) = 86.8; inactive.
SMPD4 (sphingomyelin phosphodiesterase 4) [SID405526721], technical replicate 1 gave viability, normalised (%) = 64.5; active.
SMPD4 (sphingomyelin phosphodiesterase 4) [SID405526721], technical replicate 2 scored viability, normalised (%) = 62; active.
SMPD4 (sphingomyelin phosphodiesterase 4) [SID405526721], technical replicate 3 scored viability, normalised (%) = 70.3; active.
PDE10A (phosphodiesterase 10A) [SID405526680], technical replicate 1 gave viability, normalised (%) = 44.8; active.
With PDE10A (phosphodiesterase 10A) [SID405526680], technical replicate 2 the deposit lists viability, normalised (%) = 66; active.
PDE10A (phosphodiesterase 10A) [SID405526680], technical replicate 3 showed viability, normalised (%) = 53.2; active.
With RAD23B (RAD23 nucleotide excision repair protein B) [SID405528316], technical replicate 1, the entry reads viability, normalised (%) = 69.6; active.
For RAD23B (RAD23 nucleotide excision repair protein B) [SID405528316], technical replicate 2 the deposit lists viability, normalised (%) = 62.8; active.
RAD23B (RAD23 nucleotide excision repair protein B) [SID405528316], technical replicate 3 scored viability, normalised (%) = 55.2; active.
With CLDN16 (claudin 16) [SID405528129], technical replicate 1, the entry reads viability, normalised (%) = 59.3; active.
CLDN16 (claudin 16) [SID405528129], technical replicate 2 showed viability, normalised (%) = 60; active.
For CLDN16 (claudin 16) [SID405528129], technical replicate 3, the values are viability, normalised (%) = 64; active.
CBX6 (chromobox 6) [SID405528074], technical replicate 1 gave viability, normalised (%) = 51.3; active.
With CBX6 (chromobox 6) [SID405528074], technical replicate 2, the entry reads viability, normalised (%) = 58.8; active.
With CBX6 (chromobox 6) [SID405528074], technical replicate 3, the entry reads viability, normalised (%) = 73.2; active.
For SPTA1 (spectrin alpha, erythrocytic 1) [SID405526495], technical replicate 1, the values are viability, normalised (%) = 56.4; active.
SPTA1 (spectrin alpha, erythrocytic 1) [SID405526495], technical replicate 2 scored viability, normalised (%) = 64.2; active.
For SPTA1 (spectrin alpha, erythrocytic 1) [SID405526495], technical replicate 3 the deposit lists viability, normalised (%) = 61.9; active.

2 entries from above, arranged by “viability, normalised (%)”, highest first.
BMP7 (bone morphogenetic protein 7) [SID405528036], technical replicate 2: viability, normalised (%) = 87.5; outcome = inactive
BMP7 (bone morphogenetic protein 7) [SID405528036], technical replicate 3: viability, normalised (%) = 80.9; outcome = inactive
